Data: patent US8710071B2, “Compounds, compositions and methods for reducing lipid levels” (CVI Pharmaceuticals Limited, priority 2008, dated 2014)
For at least one compound, name, drawing or mass did not settle the structure.

Experiments:
LDLR mRNA = LDLR mRNA expression in HepG2 cells, quantitative real-time RT-PCR; format: cell-based, human; conditions: indicated concentrations, 24 hours (FIG. 15A)
Procedure: Activities of some compounds of Formulas I, II, III, and IV on LDLR mRNA expression were determined. HepG2 cells were treated with new compounds individually at a dose less than or equal to 10 μM for 24 hours. Total RNA was harvested for quantitative real-time RT-PCR analysis using the method described in Example 16B. […] In these experiments, berberine chloride was included for comparison.
The time-dependent effects of compounds of Formula I, II, III, and IV on the upregulation of LDLR mRNA and the inhibition of PCSK9 mRNA expression were examined (Horton J D, Cohen J C, Hobbs H I T. “Molecular biology of PCSK9: its role in LDL metabolism” TRENDS in Biochemical Sciences 2007; 32:71-77). HepG2 cells were treated with new compounds individually at 20 uM dose for 1 day, 2 day, and 3 days. Total RNA was isolated and 2 μg was used to generate cDNA in a reaction containing random primers and M-MLV at 37° C. for 1 hour in a volume of 25 μl. […]
Total RNA was harvested for quantitative real-time RT-PCR analysis using method described in Examples 16B.
(§1) The effects of 23 compounds on the mRNA expressions of LDLR and PCSK9 were examined using quantitative real-time RT-PCR assays. […] The fold activity was calculated by dividing mRNA abundance in compound treated cells with that of control.

PCSK9 mRNA = PCSK9 mRNA expression in HepG2 cells, quantitative real-time RT-PCR; format: cell-based, human; conditions: indicated concentrations, 24 hours (FIG. 15B)
Procedure: The time-dependent effects of compounds of Formula I, II, III, and IV on the upregulation of LDLR mRNA and the inhibition of PCSK9 mRNA expression were examined (Horton J D, Cohen J C, Hobbs H I T. “Molecular biology of PCSK9: its role in LDL metabolism” TRENDS in Biochemical Sciences 2007; 32:71-77). HepG2 cells were treated with new compounds individually at 20 uM dose for 1 day, 2 day, and 3 days. Total RNA was isolated and 2 μg was used to generate cDNA in a reaction containing random primers and M-MLV at 37° C. for 1 hour in a volume of 25 μl. Real-time PCR was performed on the cDNA using MCEP REALPLEX 2 SYSTEM (Eppendorf) and Universal MasterMix (Applied Biosystems). Human LDLR, PCSK9, and GAPDH Pre-Developed TaqMan Assay Reagents (Applied Biosystems) were used to assess the levels of mRNA expressions in HepG2. The levels of LDLR mRNA or PCSK9 mRNA were normalized to that of GAPDH. Each RNA samples was assayed in triplicate. […]
Total RNA was harvested for quantitative real-time RT-PCR analysis using method described in Examples 16B. […]
as §1

## CCC(C)(C)C(=O)O[C@H]1C[C@@H](C)C=C2C=C[C@H](C)[C@H](CC[C@@H]3C[C@@H](O)CC(=O)O3)[C@H]21 [simvastatin, reference compound]
LDLR mRNA
  LDLR mRNA expression: increases
PCSK9 mRNA
  PCSK9 mRNA expression: increases
